Results published in the supplement of paper PMC12889115.
The list shows a part of the results. Values are raw readings; no control value is given beside them.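 First-pass screen: polymyxin B was added at a level that permeabilizes the Salmonella outer membrane while sparing the inner membrane. DMSO wells, with and without polymyxin B, defined maximum growth. Because plates differed from one another, each plate's data were ranked separately and the compounds with the lowest OD600 were carried forward as hits.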

Test system: Salmonella enterica serovar Typhimurium SL1344
Experiment: bacterial growth OD600 after 18 h with compound and polymyxin B; higher = more bacterial growth (less inhibition)
Details: 50 µM, Mueller-Hinton broth

SMILES | bacterial growth OD600 (polymyxin B 0.75 µg/mL) | bacterial growth OD600 (polymyxin B 1 µg/mL)
O=C(c1coc(COc2ccc(F)cc2Cl)n1)N1CCCCO1 | 0.758 | –
CCn1ccnc1CN(C)CC1CCN(CCc2ccc(Cl)cc2)CC1 | – | 0.752
CN(Cc1ccccc1)C(=O)CCC1CCN(S(=O)(=O)c2ccsc2)CC1 | 0.938 | –
CN(CCc1ccccc1)C1CCCN(C(=O)c2ccccc2Cl)C1 (configuration not stated) | – | 0.812
CC(=O)N1CCN(c2ncccc2CNC(=O)c2cc(CC(C)C)n[nH]2)CC1 | 0.962 | –
O=C(c1ccco1)N1CCCC(CCc2ccccc2)C1 (configuration not stated) | 0.005 | –
COCCCN1C(=O)CC(CC(=O)N(C)Cc2n[nH]c3c2CCCCC3)(c2ccccc2OC)C1=O (configuration not stated) | 0.946 | –
Cc1cccc(NC(=O)CCC2CCN(S(=O)(=O)c3cccc(F)c3)CC2)c1 | – | 0.928
CN(C(=O)CC(c1cccc(O)c1)c1ccccc1O)C1CCOCC1 (configuration not stated) | – | 1.22
CN(CCc1ccccc1)C1(C(=O)N2CCNC(=O)C2)Cc2ccccc2C1 | – | 1.02
CC(C)CN1CCC(C2CCN(Cc3cc(C#CCO)cs3)C2)CC1 (configuration not stated) | 0.706 | –
O=C(CCc1cnccn1)N1CCCC(CCc2ccccc2C(F)(F)F)C1 (configuration not stated) | 0.826 | –
Cc1nccn1CCN(C)C(=O)C1(N2C[C@@H](C)O[C@@H](C)C2)Cc2ccccc2C1 | – | 1.1
CSCCC(=O)NCc1cccnc1N(C)C1CCCCC1 | – | 0.91
COCc1ccc(C(=O)N2CCCC(CCC(=O)Nc3cc(OC)cc(OC)c3)C2)o1 (configuration not stated) | – | 0.909
C[C@@H]1CN(C(=O)c2nc3sccn3c2CNCCn2ccc3ccccc32)C[C@H](C)O1 | – | 1.04

SMILES | bacterial growth OD600 (polymyxin B 0.75 µg/mL) | bacterial growth OD600 (polymyxin B 1 µg/mL)
Cc1ccccc1-c1cnnc(NCCc2ccccc2Cl)n1 | 0.131 | –
COC(=O)CN(C)C(=O)c1coc(COc2cccc(C(F)(F)F)c2)n1 | 0.918 | –
O=C(c1ccccc1OC1CCN(Cc2ccc(O)c(Cl)c2)CC1)N1CCCCC1 | – | 1.23
COCCC1CCCCN1C(=O)c1cc(COc2ccc(F)cc2F)on1 (configuration not stated) | 0.631 | –
O=C(NCc1cccs1)C1CC12CCN(C(=O)C1=CCCCC1)CC2 (configuration not stated) | 0.885 | –
CSc1ccc(C(=O)N2CCC(C(Cc3ccc(F)cc3F)N(C)C(=O)C3CC3)CC2)cc1 (configuration not stated) | 0 | –
O=C(c1ccc(-c2ccccc2)cc1)C1CCCN(C(=O)c2cccnc2)C1 (configuration not stated) | – | 0.012
CN1N=C(C(=O)N2CCCC(CNC(=O)c3ccc(-c4ccccc4)cc3)C2)CCC1=O (configuration not stated) | – | 0.977
CN(Cc1ccccn1)C(=O)CC(c1cccc(O)c1)c1ccccc1Cl (configuration not stated) | – | 0.74
COCCN(CC1CCN(Cc2ccccc2F)CC1)C(=O)COC | – | 1.13
CCOC(=O)C1(Cc2ccccc2C)CCCN(Cc2ccc(COC)o2)C1 (configuration not stated) | – | 0.003
CC(C)Cc1ccc(CN2CCCC(NC(=O)CCN3CCCC3=O)C2)cc1 (configuration not stated) | – | 0.853
COc1ccccc1OCC(=O)NCC1CCCN(Cc2cnn(C(C)C)c2)C1 (configuration not stated) | – | 0.874
CCOC(=O)N1CCN(C(=O)c2cn(Cc3ccccc3C(F)(F)F)nn2)CC1 | – | 0.784
COc1ccc(CC2(CCC(=O)N3CCCC(C)C3)CCC(=O)N2)c(F)c1 (configuration not stated) | 0.81 | –
Cc1c(-c2ccccc2F)[nH]c2ccc(CNCc3cnn(C)c3)cc12 | 0.635 | –

Two entries from above, with tabs.
SMILES	bacterial growth OD600 (polymyxin B 0.75 µg/mL)	bacterial growth OD600 (polymyxin B 1 µg/mL)
COCCC1CCCCN1C(=O)c1cc(COc2ccc(F)cc2F)on1 (configuration not stated)	0.631	–
O=C(NCc1cccs1)C1CC12CCN(C(=O)C1=CCCCC1)CC2 (configuration not stated)	0.885	–
